Assay results from article PMC11846196.
No constants are given. Whether binding was seen depends on the method and setting. Binding seen in cells or lysates may run through a third protein. A yes stands for co-enrichment or nearness to the bait. Other partners may have been found.

Chains of the proteins cited; added tags and fusions are not shown.
UniProt Q7L576: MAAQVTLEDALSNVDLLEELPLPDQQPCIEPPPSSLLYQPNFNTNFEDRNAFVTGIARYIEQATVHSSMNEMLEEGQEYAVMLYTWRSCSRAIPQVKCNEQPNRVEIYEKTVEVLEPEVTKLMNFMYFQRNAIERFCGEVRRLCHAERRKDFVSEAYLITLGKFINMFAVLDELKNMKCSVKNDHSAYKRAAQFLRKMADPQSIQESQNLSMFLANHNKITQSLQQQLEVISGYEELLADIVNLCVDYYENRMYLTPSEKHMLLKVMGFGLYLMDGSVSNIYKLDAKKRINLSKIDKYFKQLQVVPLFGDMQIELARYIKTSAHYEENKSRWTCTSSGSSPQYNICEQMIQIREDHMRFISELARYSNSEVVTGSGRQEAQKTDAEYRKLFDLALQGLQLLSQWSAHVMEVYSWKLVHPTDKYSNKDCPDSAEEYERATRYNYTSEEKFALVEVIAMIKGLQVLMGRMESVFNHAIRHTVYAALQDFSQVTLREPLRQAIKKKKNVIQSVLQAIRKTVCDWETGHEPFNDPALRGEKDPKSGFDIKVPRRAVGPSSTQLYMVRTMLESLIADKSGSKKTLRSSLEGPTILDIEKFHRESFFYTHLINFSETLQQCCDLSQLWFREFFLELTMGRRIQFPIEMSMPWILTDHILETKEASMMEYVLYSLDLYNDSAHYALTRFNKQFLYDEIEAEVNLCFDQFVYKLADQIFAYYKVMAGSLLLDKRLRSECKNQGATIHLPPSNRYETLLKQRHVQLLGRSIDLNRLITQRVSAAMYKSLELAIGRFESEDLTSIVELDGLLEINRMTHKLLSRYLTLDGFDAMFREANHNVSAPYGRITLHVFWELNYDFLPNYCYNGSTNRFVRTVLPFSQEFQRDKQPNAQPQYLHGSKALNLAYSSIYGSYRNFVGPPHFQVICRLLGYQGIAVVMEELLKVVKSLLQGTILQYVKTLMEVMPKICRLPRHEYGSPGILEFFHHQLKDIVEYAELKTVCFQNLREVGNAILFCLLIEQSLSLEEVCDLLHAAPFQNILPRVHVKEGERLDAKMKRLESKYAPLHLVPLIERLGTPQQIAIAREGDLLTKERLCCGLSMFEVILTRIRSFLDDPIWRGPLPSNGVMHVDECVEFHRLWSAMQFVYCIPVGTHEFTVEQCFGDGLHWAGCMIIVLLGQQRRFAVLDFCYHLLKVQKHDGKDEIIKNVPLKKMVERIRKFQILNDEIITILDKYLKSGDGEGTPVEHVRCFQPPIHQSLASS
UniProt O43148: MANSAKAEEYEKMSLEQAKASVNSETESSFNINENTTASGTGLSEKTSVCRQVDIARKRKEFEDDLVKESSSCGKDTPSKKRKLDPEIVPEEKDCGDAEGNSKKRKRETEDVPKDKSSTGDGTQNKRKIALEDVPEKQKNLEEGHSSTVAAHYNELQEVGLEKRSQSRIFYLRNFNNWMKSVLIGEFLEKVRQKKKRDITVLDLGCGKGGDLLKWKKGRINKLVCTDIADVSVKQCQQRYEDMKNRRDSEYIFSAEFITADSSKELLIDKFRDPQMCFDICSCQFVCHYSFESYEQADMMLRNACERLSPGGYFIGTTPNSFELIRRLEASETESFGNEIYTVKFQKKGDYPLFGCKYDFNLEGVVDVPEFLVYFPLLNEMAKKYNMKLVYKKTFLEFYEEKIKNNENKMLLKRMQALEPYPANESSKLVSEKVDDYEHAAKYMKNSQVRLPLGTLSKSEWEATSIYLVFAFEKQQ

Target: Cytoplasmic FMR1 Interacting Protein 1 (human (in U2OS / OS cells)) (UniProt Q7L576)
Experiment: affinity purification with mass spectrometry; U2OS cell lysis, 5 ug anti-CYFIP1 antibody with magnetic beads overnight at 4 C, washed 3 times, eluted with glycine-HCl, mass spectrum

RNA Guanine-7 Methyltransferase (from UniProt O43148 1-476) (enzyme)
binding: binds
